Measurements as given in US20080193921, “Methods to identify agents that bind the flap-tip helix of RNA polymerase” (Wisconsin Alumni Research Foundation, published 2008).
For part of these data: The exact form of at least one protein or probe is not confirmed.

Experiments:
[1] = tested on: RNA polymerase sigma70 holoenzyme, wild-type (Escherichia coli); assay: activity assay; conditions: in vitro transcription, purified recombinant protein, protein details: core plus sigma70
[2] = tested on: RNA polymerase beta F934A (Escherichia coli); assay: binding assay; conditions: 5-iodoU in hairpin loop; 5-iodoU crosslink retained in paused TEC; purified recombinant protein; label: 32P; variant of his pause RNA hairpin, wild-type

CACTAATTTATTCCATGTCACACTTTTCGCATCTTTTTTATGCTATAATTATTTCATCGAGAGGGACACGGGGAAACACCACCATCATCACCATCATCCTGACTAGTCTTT (double strand) [galP1 consensus -10 promoter template]
activity on this sequence ([1]; -35 independent promoter): active

GAGAGACAACTTAAAGAGACTTAAAAGATTAATTTAAAATTTATCAAAAAGAGTATTGACTTAAAGTCTAACCTATAGGATACTTACAGCCATCGAGAGGGACACGGGGAAACACCACCATCATCACCATCATCCTGACTAGTCTTT (double strand) [T7 A1 promoter template]
activity on this sequence ([1]; 25 nM RNAP, 50 nM template, heparin, 37 C): active

CCUGCUUCGGCAGGCGAUGUGUGCUG [his pause RNA, tetraloop hairpin]
binding result [2]: binds
